Mtb heat-shock: 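Assay on Mycobacterium tuberculosis, filed only as a heat shock assay from Cornell; the read-out is not stated. The concentration is filed as 10 mM, unlikely as a test dose, so the dose is not known. Direction is inferred from retests: higher values go with stronger inhibition. Size under these conditions: about 69,000 compounds, about 930 of them at 50% or above in at least one test.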
LdMetRS: 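Primary screen of methionyl-tRNA synthetase; the read-out is not stated. Target: Methionyl-tRNA synthetase (putative), Leishmania donovani (UniProt E9BF75). The test concentration is not given. The values are filed as inhibition. About 68,000 compounds were tested under these conditions; 0.035% (about 24) showed 50% or more at least once.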
Mtb growth Cornell: 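Whole-cell assay for inhibitors of Mycobacterium tuberculosis growth, labelled Cornell in the record; the read-out is not stated. The concentration is filed as 10 mM, unlikely as a test dose, so the dose is not known. The record gives no direction; compounds strong in two other growth screens of this library score well above the rest, so higher reads as stronger inhibition. Size under these conditions: about 53,000 compounds, about 900 of them at 50% or above in at least one test.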

The chains behind the UniProt entries cited, without tags or fusion partners.
UniProt E9BF75, entry or part of it: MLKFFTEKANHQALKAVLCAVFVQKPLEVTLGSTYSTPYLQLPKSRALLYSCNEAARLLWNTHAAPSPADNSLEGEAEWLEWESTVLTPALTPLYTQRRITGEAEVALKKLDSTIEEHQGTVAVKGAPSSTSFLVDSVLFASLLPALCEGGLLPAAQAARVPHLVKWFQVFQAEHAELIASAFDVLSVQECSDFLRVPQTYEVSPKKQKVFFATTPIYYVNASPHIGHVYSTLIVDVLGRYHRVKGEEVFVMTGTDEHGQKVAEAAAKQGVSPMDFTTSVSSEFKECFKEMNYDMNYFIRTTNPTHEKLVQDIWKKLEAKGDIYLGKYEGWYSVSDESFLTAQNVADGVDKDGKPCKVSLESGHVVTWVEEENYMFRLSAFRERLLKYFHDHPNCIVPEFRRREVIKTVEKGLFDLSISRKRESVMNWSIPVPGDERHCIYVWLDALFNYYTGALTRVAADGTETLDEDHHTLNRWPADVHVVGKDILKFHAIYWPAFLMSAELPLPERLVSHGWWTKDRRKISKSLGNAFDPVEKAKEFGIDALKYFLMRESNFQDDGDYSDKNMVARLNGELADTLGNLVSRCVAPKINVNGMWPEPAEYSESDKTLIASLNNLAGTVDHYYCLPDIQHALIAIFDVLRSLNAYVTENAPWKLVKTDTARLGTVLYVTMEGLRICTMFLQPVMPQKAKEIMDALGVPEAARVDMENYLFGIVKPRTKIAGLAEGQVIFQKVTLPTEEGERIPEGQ

Results are percentages, as filed. The record does not define 0% and 100%; most values in the screen are far below 50% and negative numbers occur (in some assays of this library far below -100). Compounds were drawn at random from those tested, without regard to their results.

{"compound": "Cc1cccc(CN2CCc3[nH]nc(C(=O)N4CCNC(=O)C4)c3C2)n1", "LdMetRS": 7.609}
{"compound": "CCCNC(=O)C(C)NC(=O)Nc1ccccc1SC(F)F", "stereo": "centres undefined", "Mtb heat-shock": -34.03, "LdMetRS": 14.97, "Mtb growth Cornell": 2.289}
{"compound": "CC(C)(C)C1CCC(O)(CNC(=O)CCS(C)(=O)=O)CC1", "stereo": "centres undefined", "Mtb heat-shock": -24.87, "LdMetRS": 16.28, "Mtb growth Cornell": 15.31}
{"compound": "[H][C@@]12CCN(C(=O)c3cc(C(C)=O)c(C)[nH]c3=O)C[C@@]([H])(CC1)N2C", "Mtb heat-shock": -18.26, "Mtb growth Cornell": -0.9715}
{"compound": "CC(=O)c1ccc(NC(=O)NCc2cccc(N(C)C)n2)cc1C", "Mtb heat-shock": 63.04, "LdMetRS": 26.18, "Mtb growth Cornell": 76.43}
{"compound": "CC(C)N(C)S(=O)(=O)c1ccc2c(c1)CCN(C(=O)c1cscn1)C2", "Mtb heat-shock": -23.34, "LdMetRS": 17.34, "Mtb growth Cornell": 10.62}
{"compound": "Cc1nn(C)c(C)c1-c1ccc(=O)n(C(C)C(=O)NCc2ccco2)n1", "stereo": "centres undefined", "Mtb heat-shock": 4.626, "LdMetRS": 8.721, "Mtb growth Cornell": 6.859}
{"compound": "CCn1cc(CN2CCCC(COc3ccccc3F)C2)cn1", "stereo": "centres undefined", "Mtb heat-shock": -12.73, "LdMetRS": 11.15, "Mtb growth Cornell": 30.99}
{"compound": "CCOc1ncccc1C(=O)N1CCCC(c2nccn2CCOC)C1", "stereo": "centres undefined", "Mtb heat-shock": -15.31, "LdMetRS": 17.78, "Mtb growth Cornell": -9.091}
{"compound": "COC(=O)N1CC2(CCNCC2)c2cc(Cl)ccc21", "LdMetRS": 12.5}
{"compound": "CC[C@H](C)[C@H](NC(=O)Cn1ccc2ccc(F)cc21)C(=O)OC", "Mtb heat-shock": -1.564, "LdMetRS": 10.24, "Mtb growth Cornell": 45.89}
{"compound": "O=C(Cn1cccnc1=O)NC(Cc1ccsc1)c1cccnc1", "stereo": "centres undefined", "Mtb heat-shock": -5.786, "LdMetRS": 5.729, "Mtb growth Cornell": 12.13}
{"compound": "CCCc1noc(CNc2cc(C[S+](C)[O-])ccc2Cl)n1", "stereo": "centres undefined", "Mtb heat-shock": 9.546, "LdMetRS": 14.29, "Mtb growth Cornell": 17.42}
{"compound": "CN(C)c1nccc(CNS(=O)(=O)c2ccc(F)c(Cl)c2)n1", "Mtb heat-shock": -3.774, "LdMetRS": 15.03, "Mtb growth Cornell": 9.642}
{"compound": "CN1CCN(Cc2noc(CCc3nc(-c4ccccc4)no3)n2)CC1", "Mtb heat-shock": -26.29, "LdMetRS": 5.412, "Mtb growth Cornell": 3.868}
{"compound": "CC(C)(C)OC(=O)NC1(c2noc(-c3ccco3)n2)CCC1", "Mtb heat-shock": -10.85, "LdMetRS": 14.09}
{"compound": "N#Cc1ccc(OC2CCN(C(=O)c3ccc4c(c3)OCO4)CC2)nc1", "Mtb heat-shock": 8.178, "LdMetRS": 7.389, "Mtb growth Cornell": 2.551}
{"compound": "O=C(O)C(F)(F)F.O=C(O)C(F)(F)F.[H][C@@]12COC[C@]1(COc1ccccn1)CN(c1ncccn1)C2", "Mtb heat-shock": -3.989, "Mtb growth Cornell": 24.67}
{"compound": "Cc1c[nH]c(CN2CCCCC2CCn2ccnc2C)c(C)c1=O", "stereo": "centres undefined", "Mtb heat-shock": 11.5, "LdMetRS": 7.186, "Mtb growth Cornell": 30.22}
{"compound": "CC(=O)c1cc2c(=O)[nH]c(=O)n(C)c2nc1C", "Mtb heat-shock": 2.852, "LdMetRS": 17.69, "Mtb growth Cornell": 36.16}
{"compound": "CCOCC1CN(C(=O)Cc2ccccn2)Cc2c1cnn2CC", "stereo": "centres undefined", "Mtb heat-shock": -13.4, "LdMetRS": 8.242, "Mtb growth Cornell": -15.82}
{"compound": "O=C(O)C(F)(F)F.[H][C@@]12C[C@@H](c3nc(C)no3)CN(Cc3sccc3C)[C@]1([H])CCO2", "Mtb heat-shock": 3.501, "Mtb growth Cornell": -10.74}
{"compound": "Fc1cccc(-c2nnn3c2COC(CNCc2cccs2)C3)c1.O=C(O)C(F)(F)F", "stereo": "centres undefined", "Mtb heat-shock": 7.822, "Mtb growth Cornell": 18.41}
{"compound": "COc1ccc(CCN2CCCC(CN(C)Cc3ccc(C)o3)C2)cc1", "stereo": "centres undefined", "Mtb heat-shock": 1.002, "LdMetRS": 15.99, "Mtb growth Cornell": 11.62}
{"compound": "CN(Cc1cccc(CCN)c1)Cc1cccc2ncccc12", "Mtb heat-shock": -29.37, "LdMetRS": 15.4}
{"compound": "OCC1(NCc2cnc(-c3cccs3)s2)CCOCC1", "Mtb heat-shock": -16.88, "LdMetRS": 18.78}
{"compound": "Cc1cn2c(CN(C)C(=O)c3nccnc3N)c(C)nc2s1", "Mtb heat-shock": 6.962, "LdMetRS": 9.429, "Mtb growth Cornell": 26.47}
{"compound": "Cc1nc(N2CCCC2)nc2c1CN(C(=O)N1CCOCC1)CC2", "Mtb heat-shock": -24.19, "LdMetRS": 11.11, "Mtb growth Cornell": 20.43}
{"compound": "O=C(O)C(F)(F)F.[H][C@@]12C[C@H](C(=O)N(C)C)[C@@]([H])(CN(CCc3ccccc3)C1)O2", "Mtb heat-shock": -5.636, "Mtb growth Cornell": -4.043}
{"compound": "CS(=O)(=O)c1nccn1CCOc1ccccc1F", "Mtb heat-shock": 1.615, "LdMetRS": -1.989}
{"compound": "CC(C)OCCCNC(=O)Nc1cccc2ncccc12", "Mtb heat-shock": -8.863, "LdMetRS": 10.76, "Mtb growth Cornell": -13.12}
{"compound": "O=C(C1CC1)N1CC[C@H](c2nnc(-c3ccccc3F)o2)C1", "Mtb heat-shock": 14.63, "LdMetRS": 0}

Measurements from “University of Dundee, Small-Polar-MMV Screening Library” (2021), ChEMBL document CHEMBL3988442.